Reference: patent US20050271651A1, “Inhibition of bright function as a treatment for excessive immunoglobulin production” (Oklahoma Medical Research Foundation, published 2005)
Where cells or extracts were used, other partners may take part. No signal at the amounts used counts as a negative. Tags and fusion partners may be left off the protein sequences shown.

Molecular target: T1, Bright (ARID3A), native nuclear extract 300212/CL01/K562 (Homo sapiens) (UniProt Q99856)
T1 sequence (limits assumed): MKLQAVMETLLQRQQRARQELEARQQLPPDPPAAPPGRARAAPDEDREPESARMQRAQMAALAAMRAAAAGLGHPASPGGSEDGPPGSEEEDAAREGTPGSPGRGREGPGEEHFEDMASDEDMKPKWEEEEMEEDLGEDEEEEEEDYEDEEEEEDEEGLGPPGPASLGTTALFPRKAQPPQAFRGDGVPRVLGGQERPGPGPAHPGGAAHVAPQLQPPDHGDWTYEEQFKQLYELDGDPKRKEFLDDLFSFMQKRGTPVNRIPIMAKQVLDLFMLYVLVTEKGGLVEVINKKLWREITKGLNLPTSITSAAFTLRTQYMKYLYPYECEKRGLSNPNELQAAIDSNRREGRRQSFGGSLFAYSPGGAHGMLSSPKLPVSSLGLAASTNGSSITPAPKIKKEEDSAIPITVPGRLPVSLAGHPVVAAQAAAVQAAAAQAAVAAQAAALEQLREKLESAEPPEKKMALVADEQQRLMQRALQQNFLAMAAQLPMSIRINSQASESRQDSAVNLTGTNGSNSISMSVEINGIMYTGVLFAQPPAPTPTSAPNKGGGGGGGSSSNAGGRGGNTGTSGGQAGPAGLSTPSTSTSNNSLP
Assay: competition with a labelled probe
Conditions: 10-1000 molar excess does not compete, 300212 extract; protein in an extract

“TAAGTATAAATATGTACATGAGTACACCCTCCACTTATTTATCTTA (double strand) [mutated Bright site competitor]”: no binding.
